Measurements as given in publication PMC12615776.
These are yes or no findings as the source states them, for the method shown. Some binding calls cover weakened binding; strength is not graded here.

By UniProt entry, the sequences of proteins in these tests, tags left out. Where a name states a change or a piece, a line headed by the entry shows the natural chain unless it says otherwise. Chains listed by the source or under a name are the forms on record and can include a tag or linker.
UniProt Q9H7D0: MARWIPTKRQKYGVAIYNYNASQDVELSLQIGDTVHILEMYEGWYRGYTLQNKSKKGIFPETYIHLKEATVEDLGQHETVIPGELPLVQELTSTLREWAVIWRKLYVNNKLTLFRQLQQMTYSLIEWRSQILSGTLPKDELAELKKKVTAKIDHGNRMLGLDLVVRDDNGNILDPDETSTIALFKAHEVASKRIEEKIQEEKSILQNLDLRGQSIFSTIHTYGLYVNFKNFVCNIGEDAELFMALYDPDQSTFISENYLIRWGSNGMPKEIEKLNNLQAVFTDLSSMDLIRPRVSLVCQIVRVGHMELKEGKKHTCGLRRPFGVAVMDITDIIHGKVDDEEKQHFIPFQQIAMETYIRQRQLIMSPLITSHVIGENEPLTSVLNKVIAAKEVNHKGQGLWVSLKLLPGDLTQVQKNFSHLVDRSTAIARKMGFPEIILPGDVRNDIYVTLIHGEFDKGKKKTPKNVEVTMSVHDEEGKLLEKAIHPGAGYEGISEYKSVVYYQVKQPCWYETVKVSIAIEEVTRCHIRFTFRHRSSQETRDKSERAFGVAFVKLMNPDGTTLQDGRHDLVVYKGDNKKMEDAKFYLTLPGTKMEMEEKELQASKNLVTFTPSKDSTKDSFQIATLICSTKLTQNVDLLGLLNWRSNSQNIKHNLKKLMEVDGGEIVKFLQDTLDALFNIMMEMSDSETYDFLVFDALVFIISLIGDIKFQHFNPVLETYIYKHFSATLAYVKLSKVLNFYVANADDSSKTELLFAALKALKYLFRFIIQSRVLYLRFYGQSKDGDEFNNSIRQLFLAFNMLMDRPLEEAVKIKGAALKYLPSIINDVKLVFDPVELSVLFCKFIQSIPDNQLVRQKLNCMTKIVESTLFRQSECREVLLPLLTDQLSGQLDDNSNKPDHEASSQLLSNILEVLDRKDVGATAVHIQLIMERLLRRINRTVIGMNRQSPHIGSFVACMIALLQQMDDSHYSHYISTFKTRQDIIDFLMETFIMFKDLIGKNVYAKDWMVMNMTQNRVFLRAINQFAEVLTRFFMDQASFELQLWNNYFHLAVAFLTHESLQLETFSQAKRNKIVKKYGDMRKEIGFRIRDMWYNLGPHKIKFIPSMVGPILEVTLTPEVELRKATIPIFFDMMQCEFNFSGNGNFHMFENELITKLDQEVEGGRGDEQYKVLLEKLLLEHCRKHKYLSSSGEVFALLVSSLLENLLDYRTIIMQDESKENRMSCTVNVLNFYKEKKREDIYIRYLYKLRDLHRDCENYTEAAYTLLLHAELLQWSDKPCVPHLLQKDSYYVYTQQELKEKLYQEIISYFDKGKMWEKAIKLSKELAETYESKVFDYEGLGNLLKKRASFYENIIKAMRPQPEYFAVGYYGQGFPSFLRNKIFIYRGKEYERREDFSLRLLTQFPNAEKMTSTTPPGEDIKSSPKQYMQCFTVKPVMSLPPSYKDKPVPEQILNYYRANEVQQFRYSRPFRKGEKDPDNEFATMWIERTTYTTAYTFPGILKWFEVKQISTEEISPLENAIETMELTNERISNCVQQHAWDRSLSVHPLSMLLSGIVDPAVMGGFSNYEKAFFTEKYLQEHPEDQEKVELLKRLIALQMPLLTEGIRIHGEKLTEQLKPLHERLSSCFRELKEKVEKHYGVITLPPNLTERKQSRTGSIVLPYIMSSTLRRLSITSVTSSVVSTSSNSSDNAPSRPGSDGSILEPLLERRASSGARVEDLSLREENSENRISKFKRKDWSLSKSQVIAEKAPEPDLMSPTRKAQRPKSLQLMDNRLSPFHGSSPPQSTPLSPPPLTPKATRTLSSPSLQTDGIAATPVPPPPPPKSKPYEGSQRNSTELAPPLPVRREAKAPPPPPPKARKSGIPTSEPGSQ
UniProt Q92556: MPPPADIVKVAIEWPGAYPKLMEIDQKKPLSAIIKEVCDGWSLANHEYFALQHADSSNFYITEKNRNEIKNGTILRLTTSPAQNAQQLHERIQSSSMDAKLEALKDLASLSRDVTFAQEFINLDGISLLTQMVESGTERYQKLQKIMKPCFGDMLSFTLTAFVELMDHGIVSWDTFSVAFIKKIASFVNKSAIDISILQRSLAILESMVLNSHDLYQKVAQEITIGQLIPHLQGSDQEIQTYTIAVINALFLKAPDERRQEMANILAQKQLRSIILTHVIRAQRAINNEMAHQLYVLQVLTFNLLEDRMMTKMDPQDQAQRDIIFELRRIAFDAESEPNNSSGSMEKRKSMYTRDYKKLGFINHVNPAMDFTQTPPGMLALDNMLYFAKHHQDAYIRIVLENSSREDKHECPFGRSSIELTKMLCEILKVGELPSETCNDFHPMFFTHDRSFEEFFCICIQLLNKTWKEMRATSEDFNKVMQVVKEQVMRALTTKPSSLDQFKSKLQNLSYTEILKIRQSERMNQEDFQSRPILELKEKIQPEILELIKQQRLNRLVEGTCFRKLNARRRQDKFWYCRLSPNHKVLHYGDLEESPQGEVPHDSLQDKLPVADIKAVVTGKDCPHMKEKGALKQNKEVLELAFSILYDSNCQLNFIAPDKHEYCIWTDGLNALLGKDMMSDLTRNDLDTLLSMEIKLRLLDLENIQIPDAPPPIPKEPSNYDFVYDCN
human ELMO1CTD VL1 mutant (R563A/R568A/R569A/R570A/K573A), N-terminal FLAG tag kept (Q92556, form named): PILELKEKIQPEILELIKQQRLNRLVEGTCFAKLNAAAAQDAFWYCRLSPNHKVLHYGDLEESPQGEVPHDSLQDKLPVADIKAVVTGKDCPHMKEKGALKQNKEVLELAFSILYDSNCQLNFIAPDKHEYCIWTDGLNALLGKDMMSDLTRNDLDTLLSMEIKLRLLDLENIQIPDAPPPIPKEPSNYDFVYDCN
human ELMO1CTD β3/β4 mutant (K584A/K607A), N-terminal FLAG tag kept (Q92556, form named): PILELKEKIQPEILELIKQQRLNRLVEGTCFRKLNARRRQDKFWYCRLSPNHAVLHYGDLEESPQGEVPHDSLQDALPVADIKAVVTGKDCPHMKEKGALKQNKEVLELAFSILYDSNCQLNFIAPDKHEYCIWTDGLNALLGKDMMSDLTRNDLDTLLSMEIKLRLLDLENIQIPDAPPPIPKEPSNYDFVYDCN

What was measured:
[1] = target: human DOCK5, full length (residues 1–1870), tags cleaved (human) (UniProt Q9H7D0); test: cryo-EM structure; purified DOCK5•ELMO1 complex mixed with a two-fold molar excess of Rac1^G15A-His10 and RhoG^Q61L-His10, pre-incubated on ice at least 1 h in 20 mM HEPES-NaOH pH 7.0, 150 mM NaCl, 1 mM MgCl2 (final 0.4 μM); bound to a lipid monolayer-coated grid [67PC/21PA/6PIP3/6DOGS-NTA Ni (mol%)]; single-particle analysis, C2, 6.98 Å (local 7.52 Å); both purified
[2] = target: human DOCK5 wild type with N-terminal FLAG and SBP tags kept (of the DOCK5•ELMO1CTD complex for the GEF assay) (human) (UniProt Q9H7D0); test: co-purification (affinity + SEC); FLAG-SBP-DOCK5 and FLAG-ELMO1CTD (wild type or mutant) co-expressed in FreeStyle 293-F cells; complex purified on Streptavidin Sepharose beads and by SEC (Superose 6; 20 mM HEPES-NaOH pH 8.0, 300 mM NaCl, 1 mM TCEP), tags not cut off
[3] = target: human DOCK5 hinge mutant (D1214A/E1215A) with N-terminal FLAG and SBP tags kept (human) (UniProt Q9H7D0); test: as above

Row | binding [1] | binding [2] | binding [3] | Substance
1 | binds |  |  | human ELMO1, full length (residues 1–727), tag cleaved (from UniProt Q92556 1-727)
2 |  | binds |  | human ELMO1CTD VL1 mutant (R563A/R568A/R569A/R570A/K573A), N-terminal FLAG tag kept (from UniProt Q92556 532-727) (domain or fragment)
3 |  | binds | binds | human ELMO1CTD wild type (residues 532–727), N-terminal FLAG tag kept (of the DOCK5•ELMO1CTD complex for the GEF assay) (from UniProt Q92556 532-727) (domain or fragment)
4 |  | binds | binds | human ELMO1CTD β3/β4 mutant (K584A/K607A), N-terminal FLAG tag kept (from UniProt Q92556 532-727) (domain or fragment)
